# PMC12864446
# These are yes or no findings as the source states them, for the method shown. In cells and extracts the contact can be indirect. These calls come from enrichment with a bait or labelling near it, and not all partners need be listed. Tags and fused reporters may be left off the sequences shown.
# T1: PsbS-TurboID-eGFP (Arabidopsis thaliana) (UniProt Q9XF91)
# T1 sequence: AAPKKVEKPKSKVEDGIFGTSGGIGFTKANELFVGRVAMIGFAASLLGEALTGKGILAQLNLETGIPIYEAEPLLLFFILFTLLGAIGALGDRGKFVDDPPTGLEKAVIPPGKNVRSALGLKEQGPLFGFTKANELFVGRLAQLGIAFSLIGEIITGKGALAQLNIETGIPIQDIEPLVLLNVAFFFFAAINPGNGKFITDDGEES
# Biological target: T1, PsbS-TurboID-eGFP (Arabidopsis thaliana)
# Assay: proximity labelling; TurboID fused to PsbS in stable Arabidopsis seedlings (5-day old); 50 µM biotin, 3 h, 22°C, under high light (600 µmol m-2 s-1) or in the dark; streptavidin magnetic beads, LC-MS/MS, LFQ against the control PTP-TurboID-eGFP (log2 FC >= 1)
row,Binder,binding
1,"FtSH1 (enzyme, UniProt Q39102 87-716) VVDEPASPSVVIESQAVKPSTPSPLFIQNEILKAPSPKSSDLPEGSQWRYSEFLNAVKKGKVERVRFSKDGSVVQLTAVDNRRASVIVPNDPDLIDILAMNGVDISVSEGESSGNDLFTVIGNLIFPLLAFGGLFLLFRRAQGGPGGGPGGLGGPMDFGRSKSKFQEVPETGVSFADVAGADQAKLELQEVVDFLKNPDKYTALGAKIPKGCLLVGPPGTGKTLLARAVAGEAGVPFFSCAASEFVELFVGVGASRVRDLFEKAKSKAPCIVFIDEIDAVGRQRGAGMGGGNDEREQTINQLLTEMDGFSGNSGVIVLAATNRPDVLDSALLRPGRFDRQVTVDRPDVAGRVKILQVHSRGKALGKDVDFDKVARRTPGFTGADLQNLMNEAAILAARRELKEISKDEISDALERIIAGPEKKNAVVSEEKKRLVAYHEAGHALVGALMPEYDPVAKISIIPRGQAGGLTFFAPSEERLESGLYSRSYLENQMAVALGGRVAEEVIFGDENVTTGASNDFMQVSRVARQMIERFGFSKKIGQVAVGGPGGNPFMGQQMSSQKDYSMATADIVDAEVRELVEKAYKRATEIITTHIDILHKLAQLLIEKETVDGEEFMSLFIDGQAELYIS",binds
2,"HCF173 (protein, UniProt Q8W4D6 80-598) AKKLDVAPPSPQSPPSPPTLKLDDVNPVGLGRRSRQIFDEVWRKFSGLGQMSRTTRPDEQETLDSLLIREGPMCEFAVPGAQNVTVLVVGATSRIGRIVVRKLMLRGYTVKALVRKQDEEVMSMLPRSVDIVVGDVGEPSTLKSAVESCSKIIYCATARSTITADLTRVDHLGVYNLTKAFQDYNNRLAQLRAGKSSKSKLLLAKFKSAESLDGWEIRQGTYFQDTTASKYDGGMDAKFEFTETERAEFSGYVFTRGGYVELSKKLSLPLGTTLDRYEGLVLSVGGNGRSYVVILEAGPSSDMSQSKQYFARISTKAGFCRVRVPFSAFRPVNPEDPPLDPFLVHTLTIRFEPKRQRPVDGLAGAQQDLRSFSLVFEYIKALPAGQETDFILVSCTGSGVEANRREQVLKAKRAGEDSLRRSGLGYTIIRPGPLKEEPGGQRALIFDQGNRISQGISCADVADICVKALHDSTARNKSFDVCHEYVAEQGIELYELVAHLPDKANNYLTPALSVLEKNT",binds
3,"FtSH8 (enzyme, UniProt Q8W585 74-685) DEQGQGVSSSRMSYSRFLEYLDKGRVEKVDLYENGTIAIVEAVSPELGNRIQRVRVQLPGLSQELLQKLRAKNIDFAAHNAQEDQGSPILNLIGNLAFPVILIGGLFLLSRRSSGGMGGPGGPGFPLQIGQSKAKFQMEPNTGVTFDDVAGVDEAKQDFMEVVEFLKKPERFTAVGARIPKGVLLVGPPGTGKTLLAKAIAGEAGVPFFSISGSEFVEMFVGVGASRVRDLFKKAKENAPCIVFVDEIDAVGRQRGTGIGGGNDEREQTLNQLLTEMDGFEGNTGVIVVAATNRADILDSALLRPGRFDRQVSVDVPDVKGRTDILKVHSGNKKFESGVSLEVIAMRTPGFSGADLANLLNEAAILAGRRGKTAISSKEIDDSIDRIVAGMEGTVMTDGKSKSLVAYHEVGHAICGTLTPGHDAVQKVTLIPRGQARGLTWFIPSDDPTLISKQQLFARIVGGLGGRAAEEVIFGESEVTTGAVSDLQQITGLAKQMVTTFGMSEIGPWSLMDSSEQSDVIMRMMARNSMSEKLANDIDTAVKTLSDKAYEIALSQIRNNREAMDKIVEILLEKETMSGDEFRAILSEFTEIPPENRVASSTSTSTPTPASV",binds

# Second part, the binder after the results:
row,binding,Binder
1,binds,"proton gradient regulation 5-like photosynthetic phenotype 1B (PGRL1B) (protein, UniProt Q8GYC7 50-313) ASTDQSGQVGGEEVDSKILPYCSINKNEKRTIGEMEQEFLQAMQSFYYEGKAIMSNEEFDNLKEELMWEGSSVVMLSSDEQRFLEASMAYVSGNPILSDEEYDKLKMKLKMDGSEIVCEGPRCSLRSKKVYSDLAIDYFKMFLLNVPATVVALGLFFFLDDITGFEITYLLELPEPFSFIFTWFAAVPAIVYLALSLTKLILKDFLILKGPCPNCGTENVSFFGTILSIPNDSNTNNVKCSGCGTEMVYDSGSRLITLPEGGKA"
2,binds,"PSII protein PSBQ1 (protein, UniProt Q9XFT3 76-224) DAISIKVGPPPAPSGGLPAGTDNSDQARDFALALKDRFYLQPLPPTEAAARAKESAKDIINVKPLIDRKAWPYVQNDLRSKASYLRYDLNTIISSKPKDEKKSLKDLTTKLFDTIDNLDYAAKKKSPSQAEKYYAETVSALNEVLAKLG"
